No constants are given. Whether binding was seen depends on the method and setting. Some results given as binding are weak or reduced against the parent protein; the word gives no strength.
T1: human CRTh2 (chemoattractant receptor-homologous molecule expressed on T helper 2 cells) (human) (UniProt Q9Y5Y4)
T1 sequence: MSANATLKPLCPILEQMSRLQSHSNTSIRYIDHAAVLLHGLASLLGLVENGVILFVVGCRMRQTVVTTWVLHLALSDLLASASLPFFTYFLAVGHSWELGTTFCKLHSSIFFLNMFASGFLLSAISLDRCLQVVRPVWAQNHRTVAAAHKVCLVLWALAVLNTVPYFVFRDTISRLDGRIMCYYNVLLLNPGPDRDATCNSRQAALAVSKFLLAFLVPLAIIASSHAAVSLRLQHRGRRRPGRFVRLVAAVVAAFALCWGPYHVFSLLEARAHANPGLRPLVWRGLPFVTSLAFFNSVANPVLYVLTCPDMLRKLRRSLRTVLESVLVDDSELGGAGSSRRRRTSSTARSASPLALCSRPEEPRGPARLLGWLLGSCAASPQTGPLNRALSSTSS

T2: rhesus monkey CRTh2 (rhesus monkey)
T2 sequence: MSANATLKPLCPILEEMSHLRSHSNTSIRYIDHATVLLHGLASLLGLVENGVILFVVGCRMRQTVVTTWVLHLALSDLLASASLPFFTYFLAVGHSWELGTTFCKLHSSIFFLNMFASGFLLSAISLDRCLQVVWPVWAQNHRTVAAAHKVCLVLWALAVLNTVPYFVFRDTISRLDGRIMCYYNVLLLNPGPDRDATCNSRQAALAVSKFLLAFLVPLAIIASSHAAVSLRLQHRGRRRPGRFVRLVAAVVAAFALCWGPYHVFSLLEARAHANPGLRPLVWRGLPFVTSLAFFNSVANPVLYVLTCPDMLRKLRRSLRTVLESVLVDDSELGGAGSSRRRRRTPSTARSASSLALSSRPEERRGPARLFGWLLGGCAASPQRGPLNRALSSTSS


Key:
[1] = biological target: T1, human CRTh2 (chemoattractant receptor-homologous molecule expressed on T helper 2 cells) (human); test: flow cytometry on 293 cells overexpressing human CRTh2
[2] = biological target: T1, human CRTh2 (chemoattractant receptor-homologous molecule expressed on T helper 2 cells) (human); test: flow cytometry on primary human basophils and eosinophils
[3] = biological target: T1, human CRTh2 (chemoattractant receptor-homologous molecule expressed on T helper 2 cells) (human); test: flow cytometry on 293 cells expressing human CRTh2; antibody at 20, 2 and 0.2 ug/ml [Cont.]
[4] = biological target: T1, human CRTh2 (chemoattractant receptor-homologous molecule expressed on T helper 2 cells) (human); test: flow cytometry on primary human basophils and eosinophils of PBMC; antibody at 5 and 0.5 ug/ml, labelled anti-mouse IgG [Cont.]
[5] = biological target: T2, rhesus monkey CRTh2 (rhesus monkey); test: flow cytometry on primary rhesus blood basophils [Cont.]
[6] = biological target: T2, rhesus monkey CRTh2 (rhesus monkey); test: flow cytometry on 293 cells expressing amino-terminal gD-tagged rhesus CRTh2
[7] = biological target: T2, rhesus monkey CRTh2 (rhesus monkey); test: flow cytometry on 300.19 cells expressing amino-terminal Flag-tagged rhesus CRTh2
[8] = biological target: T2, rhesus monkey CRTh2 (rhesus monkey); test: flow cytometry on 293 or 300.19 cells overexpressing rhesus CRTh2 and on primary rhesus basophils

binding [1]	binding [2]	binding [3]	binding [4]	binding [5]	binding [6]	binding [7]	Binder	binding [8]
binds	binds	binds	binds				mouse anti-human CRTh2 monoclonal antibody 31A5 (antibody, V domains shown) VH: QVQLKESGPGLVAPSQSLSITCTVSGFSLTGYGVNWVRQPPGKGLEWLGMIWDDGTTDFDSALRSRLSISKDNSKSQVFLKMNSLQTDDTARYFCARGDYGYAMDYWGQGTSVTVSS VL: DIQMTQSPASLSVSVGETVTITCRASVNIYSNLAWYQQRQGKSPQLLVYAATNLAEGVPSRFSGSGSGTQYSLKINSLQSEDFGSYYCQHFWVTPYTFGGGTKLEIK	
				no binding (tested: 10 ug/ml)	no binding (tested: 10 ug/ml)	no binding (tested: 10 ug/ml)	humanized anti-CRTh2 antibody hu19A2.v1 (antibody, human IgG1, kappa, V domains shown) VH: EVQLVESGGGLVQPGGSLRLSCAASGFTFSSYSMSWVRQAPGKGLEWVAYISNGGSTTYYPGTVEGRFTISRDNSKNTLYLQMNSLRAEDTAVYYCARHRTNWDFDYWGQGTLVTVSS VL: DIQMTQSPSSLSASVGDRVTITCRASENIYSNLAWYQQKPGKAPKLVVYAATQLADGVPSRFSGSGSGTDYTLTISSLQPEDFATYYCQHFWITPWTFGQGTKVEIKR	no binding (tested: up to 10 ug/ml (FIG. 3D-3F legend))

— US20140328849A1 (Genentech, published 2014)
